Measurements from “University of Dundee, Small-Polar-MMV Screening Library” (2021), ChEMBL document CHEMBL3988442.

Protein sequences, listed by entry. Tags and fused reporters are not part of them. Residues count along the entry.
UniProt A4I591, 1-473: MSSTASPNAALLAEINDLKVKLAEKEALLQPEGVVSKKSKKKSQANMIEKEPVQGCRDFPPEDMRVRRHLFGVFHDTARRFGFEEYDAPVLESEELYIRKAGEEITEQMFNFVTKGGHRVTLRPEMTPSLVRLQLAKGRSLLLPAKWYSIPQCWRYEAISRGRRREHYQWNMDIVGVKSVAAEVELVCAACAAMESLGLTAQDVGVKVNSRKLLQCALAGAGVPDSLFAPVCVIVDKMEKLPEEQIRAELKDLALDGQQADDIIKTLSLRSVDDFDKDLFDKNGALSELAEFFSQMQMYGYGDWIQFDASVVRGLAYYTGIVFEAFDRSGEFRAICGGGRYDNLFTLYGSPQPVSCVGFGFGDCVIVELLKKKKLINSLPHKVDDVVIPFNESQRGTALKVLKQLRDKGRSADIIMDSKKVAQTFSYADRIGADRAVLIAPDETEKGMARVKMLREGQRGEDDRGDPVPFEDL

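Histidine-tRNA ligase, Leishmania infantum (UniProt A4I591). Enzyme assay of histidyl-tRNA synthetase; the read-out is not stated. Concentration: 30 µM. Direction is inferred from retests: higher values go with stronger inhibition. The assay is labelled LdHisRS but filed under L. infantum. Size under these conditions: about 69,000 compounds, about 410 of them at 50% or above in at least one test.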

Values are the deposited “Percent Effect”, in %.
The controls that fix the scale are not given in the record; negative values are as filed.
The compounds are a random part of those screened.

For c1ccc2nc(CN3CCCC3c3noc(C4CC4)n3)ccc2c1 (stereo unspecified) the result was 36.7%. CC(=O)NCc1ccc(C(=O)Nc2ccc3c(c2)C(=O)NC3)cc1 read 24.05%. Cc1ccc(CN2C[C@H](NC(=O)c3nccn3C)[C@H]3OCCC[C@H]32)o1 gave 6.306%. COCc1noc(CN2CC(=O)N(C)c3ccccc3C2=O)n1 read 19.4%. For CCCn1[nH]cc/c1=N\C(=O)CN1CCCC1c1c(C)nn(C)c1C (stereo unspecified) the result was 19.05%. For CCN(CC)CCSc1ncnc2[nH]ncc12 the result was 13.43%.

Result for CN1C(=O)CCCC12CCCN(C(=O)c1ccc3c(c1)OCO3)C2 (stereo unspecified) was 10.09%. COc1ccc(CN2CC[C@H]3O[C@@H](C(=O)NCC4CC4)CC[C@H]32)cc1 read 6.944%. Result for O=C(c1ccncc1)N1CCCN(Cc2nnc(C3CC3)o2)CC1 was 12.68%. For Cn1c(N)c2c(=O)n(C)c(-c3ccc(Cl)cc3Cl)cc2c(C#N)c1=O the result was 19.54%. For CC(C1CC1)N(CC(=O)NCC(F)(F)F)C1CC1 (stereo unspecified) the result was 9.091%. Result for Cc1cc2c(cc1NC(=O)NC(C)(C)C)OCO2 was 17.2%.

For CCCN1CCCn2nc(CNC(=O)CC(C)n3ccnc3C)cc2C1 (stereo unspecified) the result was 11.97%. Cc1cccc(N2CCC3(CCCN(C(=O)Cc4cccnc4)C3)C2)n1 (stereo unspecified) gave -4.425%. With Cn1cccc1C(=O)N1CCC2(CC1)CC(N1CCOCC1)C2 the screen gave 8.257%. With COCC(=O)N1CCC(c2cc3nc(C)cc(C(F)(F)F)n3n2)CC1 the screen gave 5.797%. CC(C)C(=O)NCCc1cc2nc(-c3ccncc3)ccn2n1 read 2.817%. Result for O=C(c1ccc(-n2cnnc2)cc1)N1CCC(Nc2cccnn2)CC1 was 5.217%.

For O=C(NC1CCCN(c2ccccc2F)C1)c1ccon1 (stereo unspecified) the result was 5.714%. Cc1ccc(CN2CCn3c(CNC(=O)c4cccn4C)cnc3C2)s1 read 48.57%. CC(=O)c1ccc(N2CCCC(CO)(CCOc3ccccc3)C2)nc1 (stereo unspecified) gave 25.47%. Cc1nc(O)ccc1C(=O)NCc1ncoc1C read 7.292%. CS(=O)(=O)Cc1noc(CN(Cc2ccco2)c2ccccc2)n1 read 13.95%. Cc1ccc(N2C[C@@H]3OCCN(CC4CC4)[C@@H]3C2)nn1 read 11.32%.

Cc1csc(N2CCN(C(=O)c3c(C)oc(C)c3C)CC2)n1 read 3.448%. CC(C)NC(=O)N1CCN(CC2CC2)CC2(CC(=O)N(C)C2)C1 (stereo unspecified) gave -3.846%. Cc1nc(C)n(CC2CCCN2Cc2cscn2)n1 (stereo unspecified) gave 10.67%. With Cc1c(S(=O)(=O)N2CCCCC2c2nnc(-c3cccs3)o2)cnn1C (stereo unspecified) the screen gave 12.95%. CC(C)C1CN(C(=O)c2cn3cc(Cl)cnc3n2)CCCN1CC1CC1 (stereo unspecified) gave 17.74%. For CCc1nc(CCn2ccnc2-c2nccn2C)no1 the result was 15.79%.

Result for COc1ccc(CN2CC(n3cccn3)C2)cc1F was 7.254%. CS(=O)(=O)c1ccc(C(=O)NCc2nc3cc(F)ccc3[nH]2)cc1 gave 19.05%. With CCc1oc2ccc(NS(=O)(=O)CC)cc2c1C(=O)OC the screen gave 6.452%. Result for Cc1nc(C(=O)N2CCCC(c3nc(C(C)C)cs3)C2)c[nH]1 (stereo unspecified) was -10.99%. For Cc1ccc(=O)n(CC2(O)CCN(Cc3ccsc3)CC2)n1 the result was 19.44%. With Cc1ccc(C(=O)N2CCOC3(CCCC3)C2)c(=O)[nH]1 the screen gave 19.75%.

With CC(CC1CC1)NCCCN1CCCN(C)CC1 (stereo unspecified) the screen gave 15.79%. CSc1ccc(C(=O)C2CCCN(C(=O)Cn3cnnn3)C2)cc1 (stereo unspecified) read -0.5236%. For COc1ccccc1CC(=O)N1CCC(NCc2cc[nH]c2)CC1 the result was 27.69%.

Once more, the final 3:

| Compound | percent effect |
|---|---|
| `CC(CC1CC1)NCCCN1CCCN(C)CC1` (stereo unspecified) | 15.79 |
| `CSc1ccc(C(=O)C2CCCN(C(=O)Cn3cnnn3)C2)cc1` (stereo unspecified) | -0.5236 |
| `COc1ccccc1CC(=O)N1CCC(NCc2cc[nH]c2)CC1` | 27.69 |